# This is one part of the list.
# B1: truncCC1G-10077 (Coprinopsis cinerea) (protein)
# chain: MHHHHHHHHPLPSPGPGWVLIQNGGTGKFLCSTPSGDIGTADGPETVYDYSVQWRFIQREYTGVYHVVNRATGAYLRQIGTSMPSIGLAEENDDELKDWWMLETYDNSEIGLASIISRWTGNVLDHYGGVSVQALDNNTENSYRSWAIIPARDWLTSFSLVNGQGGLCLAAQYAREETRLSTTANVNDFHAQWVFRKPSGSSGYTIQNKYNNHYVGGTSARWELVVCCNKYFGIRNTSTQKYLAIEDGQVTFQDQDMTDRKQCWELCSGRATDTSGNDYDLIYMDDDLLEVMIPWVGDKQGDLKHYIEKRATKKPPKDKGGWQLPAAGLIKKPKFNDIRQLLQELIEQWEWDVVNEEREQIQTLVSIDEAEARRLLGRRPHPDIVAAYQRSRSSTLFRIDRQGYFNIAGDRYVNIQGQYGDDSYFHIALPVGVRFGREQIRRFLRDSLDRSTSVTITPTTCKPPSGGPDYNRDPDSDGDNSWIKWTIAVVGTSAIKHSEL
# How the values were obtained:
# Test in all cases: glycan array binding signal (z-score within array); higher = stronger binding
# Settings in all cases: glycan notation: IUPAC condensed, linker removed
# [1] = target: Neu5Ac(a2-3)Gal(b1-3)GlcNAc6S
# Summary of the method: (§1)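 Negative Z-scores can be read as non-binding. The Z-score is calculated within each array and then averaged across arrays of one protein sequence at different concentrations or buffers and across linkers. Arrays, 3228 in all, were curated from the Consortium for Functional Glycomics database and kept only where the protein sequence was available.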
# [2] = target: Neu5Ac(a2-3)Gal(b1-3)[Fuc(a1-4)]GlcNAc
# Summary of the method: as §1
# [3] = target: Neu5Ac(a2-3)Gal(b1-3)[Fuc(a1-4)]GlcNAc(b1-3)Gal(b1-3)[Fuc(a1-4)]GlcNAc
# Summary of the method: as §1
# [4] = target: Neu5Ac(a2-3)Gal(b1-3)[Fuc(a1-4)]GlcNAc(b1-3)Gal(b1-4)[Fuc(a1-3)]GlcNAc
# Summary of the method: as §1
# [5] = target: Neu5Ac(a2-3)Gal(b1-3)[GlcNAc(b1-6)]GalNAc
# Summary of the method: as §1
# [6] = target: Neu5Ac(a2-3)Gal(b1-3)[Neu5Ac(a2-6)]GalNAc
# Summary of the method: as §1
# [7] = target: Neu5Ac(a2-3)Gal(b1-3)[Neu5Ac(a2-6)]GlcNAc(b1-3)[Fuc(a1-3)[Gal(b1-4)]GlcNAc(b1-6)]Gal(b1-4)Glc
# Summary of the method: as §1
# [8] = target: Neu5Ac(a2-3)Gal(b1-3)]Neu5Ac(a2-3)Gal(b1-4)]GlcNAc
# Summary of the method: as §1
# Neu5Ac(a2-3)Gal(b1-4)Glc = target: Neu5Ac(a2-3)Gal(b1-4)Glc
# Summary of the method: as §1
# [9] = target: Neu5Ac(a2-3)Gal(b1-4)GlcNAc
# Summary of the method: as §1
# [10] = target: Neu5Ac(a2-3)Gal(b1-4)GlcNAc(b1-2)Man
# Summary of the method: as §1
# [11] = target: Neu5Ac(a2-3)Gal(b1-4)GlcNAc(b1-2)Man(a1-3)[GlcNAc(b1-4)][Neu5Ac(a2-3)Gal(b1-4)GlcNAc(b1-2)Man(a1-6)]Man(b1-4)GlcNAc(b1-4)GlcNAc
# Summary of the method: as §1
# [12] = target: Neu5Ac(a2-3)Gal(b1-4)GlcNAc(b1-2)Man(a1-3)[Neu5Ac(a2-3)Gal(b1-4)GlcNAc(b1-2)Man(a1-6)]Man(b1-4)GlcNAc(b1-4)GlcNAc
# Summary of the method: as §1
# [13] = target: Neu5Ac(a2-3)Gal(b1-4)GlcNAc(b1-2)Man(a1-3)[Neu5Ac(a2-3)Gal(b1-4)GlcNAc(b1-2)Man(a1-6)]Man(b1-4)GlcNAc(b1-4)[Fuc(a1-6)]GlcNAc
# Summary of the method: as §1
# [14] = target: Neu5Ac(a2-3)Gal(b1-4)GlcNAc(b1-2)Man(a1-3)[Neu5Ac(a2-6)Gal(b1-4)GlcNAc(b1-2)Man(a1-6)]Man(b1-4)GlcNAc(b1-4)GlcNAc
# Summary of the method: as §1
# [15] = target: Neu5Ac(a2-3)Gal(b1-4)GlcNAc(b1-2)[Neu5Ac(a2-3)Gal(b1-4)GlcNAc(b1-4)]Man(a1-3)[GlcNAc(b1-4)][Neu5Ac(a2-3)Gal(b1-4)GlcNAc(b1-2)[Neu5Ac(a2-3)Gal(b1-4)GlcNAc(b1-6)]Man(a1-6)]Man(b1-4)GlcNAc(b1-4)GlcNAc
# Summary of the method: as §1
# [16] = target: Neu5Ac(a2-3)Gal(b1-4)GlcNAc(b1-2)[Neu5Ac(a2-3)Gal(b1-4)GlcNAc(b1-4)]Man(a1-3)[GlcNAc(b1-4)][Neu5Ac(a2-3)Gal(b1-4)GlcNAc(b1-4)Man(a1-6)]Man(b1-4)GlcNAc(b1-4)GlcNAc
# Summary of the method: as §1
# [17] = target: Neu5Ac(a2-3)Gal(b1-4)GlcNAc(b1-2)[Neu5Ac(a2-3)Gal(b1-4)GlcNAc(b1-6)]Man(a1-6)[Neu5Ac(a2-3)Gal(b1-4)GlcNAc(b1-2)Man(a1-3)][GlcNAc(b1-4)]Man(b1-4)GlcNAc(b1-4)GlcNAc
# Summary of the method: as §1
# [18] = target: Neu5Ac(a2-3)Gal(b1-4)GlcNAc(b1-3)Gal
# Summary of the method: as §1
# [19] = target: Neu5Ac(a2-3)Gal(b1-4)GlcNAc(b1-3)Gal(b1-3)GlcNAc
# Summary of the method: as §1
# [20] = target: Neu5Ac(a2-3)Gal(b1-4)GlcNAc(b1-3)Gal(b1-4)GlcNAc
# Summary of the method: as §1
# [21] = target: Neu5Ac(a2-3)Gal(b1-4)GlcNAc(b1-3)Gal(b1-4)GlcNAc(b1-2)Man(a1-3)[Neu5Ac(a2-3)Gal(b1-4)GlcNAc(b1-3)Gal(b1-4)GlcNAc(b1-2)Man(a1-6)]Man(b1-4)GlcNAc(b1-4)GlcNAc
# Summary of the method: as §1
# [22] = target: Neu5Ac(a2-3)Gal(b1-4)GlcNAc(b1-3)Gal(b1-4)GlcNAc(b1-3)Gal(b1-4)GlcNAc
# Summary of the method: as §1
# [23] = target: Neu5Ac(a2-3)Gal(b1-4)GlcNAc(b1-3)Gal(b1-4)GlcNAc(b1-3)Gal(b1-4)GlcNAc(b1-2)Man(a1-3)[Neu5Ac(a2-3)Gal(b1-4)GlcNAc(b1-3)Gal(b1-4)GlcNAc(b1-3)Gal(b1-4)GlcNAc(b1-2)Man(a1-6)]GalNAc
# Summary of the method: as §1
# [24] = target: Neu5Ac(a2-3)Gal(b1-4)GlcNAc(b1-3)Gal(b1-4)GlcNAc(b1-3)GalNAc
# Summary of the method: as §1
# [25] = target: Neu5Ac(a2-3)Gal(b1-4)GlcNAc(b1-3)Gal(b1-4)GlcNAc(b1-3)[Neu5Ac(a2-3)Gal(b1-4)GlcNAc(b1-3)Gal(b1-4)GlcNAc(b1-6)]GalNAc
# Summary of the method: as §1
# [26] = target: Neu5Ac(a2-3)Gal(b1-4)GlcNAc(b1-3)Gal(b1-4)GlcNAc(b1-6)[Gal(b1-3)]GalNAc
# Summary of the method: as §1
# [27] = target: Neu5Ac(a2-3)Gal(b1-4)GlcNAc(b1-3)Gal(b1-4)[Fuc(a1-3)]GlcNAc
# Summary of the method: as §1
# [28] = target: Neu5Ac(a2-3)Gal(b1-4)GlcNAc(b1-3)GalNAc
# Summary of the method: as §1
# [29] = target: Neu5Ac(a2-3)Gal(b1-4)GlcNAc(b1-3)[Neu5Ac(a2-3)Gal(b1-4)GlcNAc(b1-6)]GalNAc
# Summary of the method: as §1
binder,measurement,setting,value
B1,glycan array binding signal (z-score),[1],-0.589
same,glycan array binding signal (z-score),[2],-0.52
same,glycan array binding signal (z-score),[3],0.498
same,glycan array binding signal (z-score),[4],0.323
same,glycan array binding signal (z-score),[5],-0.439
same,glycan array binding signal (z-score),[6],0.298
same,glycan array binding signal (z-score),[7],-0.327
same,glycan array binding signal (z-score),[8],0.059
same,glycan array binding signal (z-score),Neu5Ac(a2-3)Gal(b1-4)Glc,0.72
same,glycan array binding signal (z-score),[9],-0.796
same,glycan array binding signal (z-score),[10],2.91
same,glycan array binding signal (z-score),[11],-0.804
same,glycan array binding signal (z-score),[12],0.575
same,glycan array binding signal (z-score),[13],0.679
same,glycan array binding signal (z-score),[14],-1.19
same,glycan array binding signal (z-score),[15],1.51
same,glycan array binding signal (z-score),[16],0.077
same,glycan array binding signal (z-score),[17],-0.478
same,glycan array binding signal (z-score),[18],-0.492
same,glycan array binding signal (z-score),[19],-0.855
same,glycan array binding signal (z-score),[20],-0.788
same,glycan array binding signal (z-score),[21],0.036
same,glycan array binding signal (z-score),[22],-1.07
same,glycan array binding signal (z-score),[23],0.381
same,glycan array binding signal (z-score),[24],0.244
same,glycan array binding signal (z-score),[25],0.736
same,glycan array binding signal (z-score),[26],1.16
same,glycan array binding signal (z-score),[27],0.12
same,glycan array binding signal (z-score),[28],-0.5
same,glycan array binding signal (z-score),[29],0.561

# Two entries picked at random from those above:
binder,measurement,setting,value
B1,glycan array binding signal (z-score),[24],0.244
same,glycan array binding signal (z-score),[20],-0.788

# Source: the supplement of paper PMC8728848
